Columns and labels:
[1] = White lithium grease removal testing, Gardner Straight-Line Washability Machine; conditions: 20 mL solvent; for Avg. # of Cycles: cycles required to achieve the percentage removed, run until approx. 70-90% of soil removed; for Avg. % Removed: white lithium grease removed, image analysis
[2] = Tar soil removal by solvent candidates; conditions: 10 mL/0.5 grams dried tar, shaken 10 minutes, estimated visually, FIG. 12

Molecule | Avg. # of Cycles [1] | Avg. % Removed [1] [%] | tar soil removed [2]
CCOC(=O)C(C)O (centres unmarked) [Ethyl lactate] | 47 | 64.70 | 
C=C(C)[C@H]1CC=C(C)CC1 [d-limonene] | 7 | 85.4 | 
farnesene |  |  | about 80%

— patent publication US10071034B2, “Solvent compositions” (Amyris, Inc., priority 2014, dated 2018)
